# Laboratory results taken from PubChem BioAssay (EPA / NIEHS).
# Amino acid sequences for entries named in this document (tags omitted). A change or cut given only in a name is not applied to a line headed by its entry.
# UniProt P06401: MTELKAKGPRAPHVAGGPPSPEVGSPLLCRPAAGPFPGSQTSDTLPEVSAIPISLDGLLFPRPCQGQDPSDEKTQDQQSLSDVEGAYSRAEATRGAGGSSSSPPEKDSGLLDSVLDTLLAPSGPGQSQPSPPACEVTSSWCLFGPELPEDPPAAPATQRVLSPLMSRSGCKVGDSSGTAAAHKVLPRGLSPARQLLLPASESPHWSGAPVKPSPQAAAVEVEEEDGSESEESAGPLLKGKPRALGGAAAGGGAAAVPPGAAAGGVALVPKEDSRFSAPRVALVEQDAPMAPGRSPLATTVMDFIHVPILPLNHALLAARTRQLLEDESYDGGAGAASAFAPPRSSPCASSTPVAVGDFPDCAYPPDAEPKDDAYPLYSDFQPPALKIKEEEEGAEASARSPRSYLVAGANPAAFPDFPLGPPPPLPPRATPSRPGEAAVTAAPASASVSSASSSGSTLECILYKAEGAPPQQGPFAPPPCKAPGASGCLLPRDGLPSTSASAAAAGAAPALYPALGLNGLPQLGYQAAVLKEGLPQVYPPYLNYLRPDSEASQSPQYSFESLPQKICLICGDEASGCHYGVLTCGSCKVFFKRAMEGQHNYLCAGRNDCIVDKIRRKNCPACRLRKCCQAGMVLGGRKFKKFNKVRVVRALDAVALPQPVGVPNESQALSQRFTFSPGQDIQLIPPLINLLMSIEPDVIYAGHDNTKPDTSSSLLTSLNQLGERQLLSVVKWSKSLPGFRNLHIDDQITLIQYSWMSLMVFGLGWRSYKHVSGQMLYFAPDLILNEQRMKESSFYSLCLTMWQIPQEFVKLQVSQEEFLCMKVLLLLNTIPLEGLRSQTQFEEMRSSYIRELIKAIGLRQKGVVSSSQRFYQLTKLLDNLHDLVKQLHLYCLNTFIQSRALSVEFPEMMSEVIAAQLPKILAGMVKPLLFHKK
# UniProt P04637, whole entry, looked up: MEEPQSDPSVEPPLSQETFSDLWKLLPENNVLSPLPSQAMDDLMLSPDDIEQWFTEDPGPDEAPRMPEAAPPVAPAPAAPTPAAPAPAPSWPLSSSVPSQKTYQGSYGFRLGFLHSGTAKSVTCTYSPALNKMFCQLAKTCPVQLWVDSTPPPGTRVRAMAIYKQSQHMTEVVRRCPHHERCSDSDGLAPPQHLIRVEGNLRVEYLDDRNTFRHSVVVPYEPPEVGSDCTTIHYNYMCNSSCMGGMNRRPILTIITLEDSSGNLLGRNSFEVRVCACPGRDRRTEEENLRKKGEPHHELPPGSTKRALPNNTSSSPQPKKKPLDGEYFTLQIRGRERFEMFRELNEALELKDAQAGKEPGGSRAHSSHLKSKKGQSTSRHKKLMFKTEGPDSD
# UniProt P10275: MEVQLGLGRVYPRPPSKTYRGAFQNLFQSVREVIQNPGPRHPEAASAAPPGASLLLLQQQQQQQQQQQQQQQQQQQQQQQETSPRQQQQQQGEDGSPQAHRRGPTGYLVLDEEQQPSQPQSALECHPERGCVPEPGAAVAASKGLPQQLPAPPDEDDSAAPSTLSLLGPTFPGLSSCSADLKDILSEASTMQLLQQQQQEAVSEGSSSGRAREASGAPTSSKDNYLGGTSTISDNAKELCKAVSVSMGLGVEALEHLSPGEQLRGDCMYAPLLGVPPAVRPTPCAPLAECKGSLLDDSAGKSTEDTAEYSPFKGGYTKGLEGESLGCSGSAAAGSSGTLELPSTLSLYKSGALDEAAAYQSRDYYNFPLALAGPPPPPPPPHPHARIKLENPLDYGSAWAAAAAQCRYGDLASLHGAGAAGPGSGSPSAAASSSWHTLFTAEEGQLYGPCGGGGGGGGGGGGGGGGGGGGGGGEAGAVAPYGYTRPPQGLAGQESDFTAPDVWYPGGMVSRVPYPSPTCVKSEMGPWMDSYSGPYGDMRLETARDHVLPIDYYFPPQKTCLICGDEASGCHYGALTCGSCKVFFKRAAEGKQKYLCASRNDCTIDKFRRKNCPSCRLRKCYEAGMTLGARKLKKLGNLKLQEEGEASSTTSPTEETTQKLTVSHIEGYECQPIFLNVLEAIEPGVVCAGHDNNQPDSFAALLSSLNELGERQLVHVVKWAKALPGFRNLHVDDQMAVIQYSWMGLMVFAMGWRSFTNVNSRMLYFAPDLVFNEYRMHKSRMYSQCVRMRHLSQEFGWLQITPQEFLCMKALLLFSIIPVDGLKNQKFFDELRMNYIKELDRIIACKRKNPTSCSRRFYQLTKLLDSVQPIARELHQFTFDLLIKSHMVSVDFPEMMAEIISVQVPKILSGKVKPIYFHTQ
# UniProt P10827: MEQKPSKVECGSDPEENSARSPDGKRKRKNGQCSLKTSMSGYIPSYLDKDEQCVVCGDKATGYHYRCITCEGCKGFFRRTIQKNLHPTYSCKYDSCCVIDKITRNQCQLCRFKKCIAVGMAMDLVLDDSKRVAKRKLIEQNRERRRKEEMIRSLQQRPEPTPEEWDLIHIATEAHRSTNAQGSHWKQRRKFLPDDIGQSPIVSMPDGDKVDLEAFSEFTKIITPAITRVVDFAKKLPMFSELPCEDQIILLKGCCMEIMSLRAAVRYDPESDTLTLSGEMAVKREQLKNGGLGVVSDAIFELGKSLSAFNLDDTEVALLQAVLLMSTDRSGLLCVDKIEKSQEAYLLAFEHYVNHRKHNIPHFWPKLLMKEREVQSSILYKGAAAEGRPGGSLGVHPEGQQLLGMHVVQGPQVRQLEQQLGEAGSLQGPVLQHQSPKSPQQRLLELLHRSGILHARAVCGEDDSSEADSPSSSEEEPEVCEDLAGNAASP
# UniProt P10828: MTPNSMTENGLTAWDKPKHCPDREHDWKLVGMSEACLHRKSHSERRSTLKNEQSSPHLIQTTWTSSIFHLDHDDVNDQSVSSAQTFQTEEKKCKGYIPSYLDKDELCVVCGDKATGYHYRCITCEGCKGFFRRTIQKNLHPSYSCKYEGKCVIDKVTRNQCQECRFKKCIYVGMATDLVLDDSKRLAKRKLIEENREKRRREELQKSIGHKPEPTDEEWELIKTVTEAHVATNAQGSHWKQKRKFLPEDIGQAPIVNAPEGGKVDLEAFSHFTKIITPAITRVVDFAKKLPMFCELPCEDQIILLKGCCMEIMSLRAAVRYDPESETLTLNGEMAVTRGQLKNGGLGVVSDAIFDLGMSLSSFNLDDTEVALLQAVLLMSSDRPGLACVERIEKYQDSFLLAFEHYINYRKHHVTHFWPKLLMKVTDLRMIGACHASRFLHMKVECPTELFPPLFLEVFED
# UniProt P19793: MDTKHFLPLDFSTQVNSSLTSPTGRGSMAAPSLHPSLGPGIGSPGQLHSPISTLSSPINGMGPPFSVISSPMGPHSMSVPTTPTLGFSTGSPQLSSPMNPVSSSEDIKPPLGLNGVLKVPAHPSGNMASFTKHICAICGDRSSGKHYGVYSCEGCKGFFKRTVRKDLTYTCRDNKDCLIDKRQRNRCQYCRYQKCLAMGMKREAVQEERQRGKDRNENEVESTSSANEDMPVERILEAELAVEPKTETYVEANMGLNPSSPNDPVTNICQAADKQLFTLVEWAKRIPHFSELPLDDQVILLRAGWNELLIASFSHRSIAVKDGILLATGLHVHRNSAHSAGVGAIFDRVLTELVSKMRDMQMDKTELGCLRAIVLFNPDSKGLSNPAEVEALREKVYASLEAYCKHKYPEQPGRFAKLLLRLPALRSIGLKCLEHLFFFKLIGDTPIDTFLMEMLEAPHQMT
# Inconclusive results, whose numbers are uncertain, are shown with a selection of clear calls. For some of these results: Where the call is inconclusive, the potency comes from a doubtful curve fit. Calls of active or inactive are those of the source. How the source made its calls: active means hit-call score of the fitted dose curve at least 0.9, where 1 is the maximum; inconclusive means response in the unintended direction; inactive means score below 0.9.
# What was measured:
# [1] = CCTE_Simmons_CellTiterGLO_HEK293T: Viability Assessment in CCTE's Assays for Thyroperoxidase (TPO) Inhibition, Simmons Lab (AID 2283665);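 further: cells exposed to compound for 24 h before readout; actives reduce ATP signal below DMSO vehicle meaning cytotoxicity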
# In short: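 ATP depletion measured in HEK293T cells after 24 h dosing (8 concentrations, 5 nM–87.5 uM final; DMSO 0.5%) using CellTiter-Glo luminescence; curves fit for loss of signal against DMSO baseline.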
# PGR (gene 5241) = PGR (gene 5241) (UniProt P06401); assay: TOX21_PR_BLA_Followup_Antagonist_ratio: Tox21 HEK293 Progesterone Receptor (PR) Antagonism Beta-lactamase Follow-Up Assay, Ratio (AID 2283934);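 further: PR-UAS-bla HEK293T cells stimulated with 1 nM R5020 agonist for 16 hr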
# In short: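 Measured in PR-UAS-bla HEK293T cells co-treated with compound and 1 nM promegestone for 16 hr; beta-lactamase ratio read after 2 h FRET substrate loading, with parallel CellTiter-Glo cytotoxicity.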
# [2] = TOX21_PR_LUC_Followup_Antagonist_viability: Viability Assessment in the Tox21 HEK293 Progesterone Receptor (PR) Antagonism Luciferase Follow-Up Assay (AID 2283940)
# In short: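 Loss of CellTiter-Glo ATP signal indicates cytotoxicity in HEK293-PR-A-luc cells grown in 10% charcoal-stripped FBS medium, seeded 3,000 per well and incubated 16 h with compound at 37C.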
# [3] = TOX21_PR_LUC_Followup_Agonist_viability: Viability Assessment in the Tox21 HEK293 Progesterone Receptor (PR) Agonism Luciferase Follow-Up Assay (AID 2283941);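 further: loss of signal means cytotoxicity so actives lower viability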
# In short: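 Seeding: HEK293-PR-A-luc, 3,000 cells/well, 5 h at 37C. Treatment: compound in DMSO, 16 h, 37C. Read: CellTiter-Glo ATP luminescence, signal loss taken as lower viability.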
# [4] = ACEA_ER_AUC_viability: ACEA Biosciences xCELLigence Real-Time Cell Analysis on Estrogen Receptor Agonism for Viability (AID 2283782);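 further: hit means loss of impedance signal meaning reduced cell growth or viability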
# In short: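 Continuous-exposure impedance cell analysis uses T-47D cells in charcoal-stripped serum, eight 1:4 dilutions topping at 100 uM final, biological duplicate. Area under the growth curve at 80 h is fitted against DMSO baseline.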
# [5] = CCTE_Shafer_MEA_dev_active_electrodes_number: CCTE's Neural Network Formation Assay for Number of Active Electrodes, Shafer Lab (AID 2284040);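 further: potency for loss of active electrodes versus DMSO so lower counts are hits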
# In short: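 Developing rat cortical networks on MEAs, exposed DIV 0–12. Value is the AUC of active-electrode counts (≥5 spikes/min) from days 5, 7, 9, 12, relative to DMSO.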
# [6] = CCTE_Shafer_MEA_acute_AB: CCTE's Alamar Blue Assay for Cytotoxicity in the Neural Acute Assay, Shafer Lab (AID 2284069);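 further: active compounds lower the viability signal compared with DMSO wells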
# In short: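 Primary rat cortical neurons on MEA plates, exposed acutely after baseline recording on day 13 or 15 post-plating. Viability by CellTiter Blue resazurin reduction (1:6 reagent dilution), fluorescence 544/590 nm; loss of signal versus DMSO.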
# [7] = CCTE_Shafer_MEA_dev_AB: CCTE's Alamar Blue Assay for Cytotoxicity in the Neural Network Formation Assay, Shafer Lab (AID 2284083);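 further: twelve days of exposure from plating with re-dosing on DIV 5 and 9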
# In short: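 Primary rat cortical neurons on PEI-coated 48-well MEA plates, 1.5 x 10^5 cells/well in laminin drop; compound exposure from day 0 of plating for twelve days, renewed at medium changes on DIV 5 and 9. Viability read as resazurin reduction by fluorescence, relative to DMSO.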
# [8] = CCTE_Mundy_HCI_Cortical_NOG_NeuronCount: CCTE's Neurite Outgrowth Assay in rat cortical cells for Neuron Count, Mundy Lab (AID 2284236);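 further: neurons counted by imaging betaIII-tubulin and Hoechst stained cortical cells; cells exposed to compound for about 48 hours before fixation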
# In short: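 Read-out: neuron number by high-content imaging of betaIII-tubulin (Alexa Fluor-488) and Hoechst-labelled rat primary cortical cells.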
# [9] = CCTE_Mundy_HCI_Cortical_Synap_Neur_Matur_NeuronCount: CCTE's Synaptogenesis and Neurite Maturation Assay in rat cortical cells for Neuron Count, Mundy Lab (AID 2284242);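 on AC50: hits reduce neuron count versus DMSO baseline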
# In short: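 Measured at DIV 12: fluorescently labelled neurons (Hoechst nuclei, MAP2) in rat primary cortical cultures, counted by high-content imaging. AraC suppressed glia from DIV 5; DMSO served as negative control.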
# [10] = IUF_NPC5_oligodendrocyte_differentiation_120hr: Leibniz Research Institute for Environmental Medicine (IUF) 120-hour Oligodendrocyte Differentiation Assay (NPC5) (AID 2284304);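 further: primary human fetal neural progenitor spheres plated to migrate and differentiate; share of O4-positive cells among Hoechst nuclei found by CNN image analysis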
# In short: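 After plating on poly-D-lysine/laminin, fetal-derived hNPC spheres differentiated for 120 h at 37C in compound-containing N2 medium, refreshed by half on day 3. O4 immunostaining over Hoechst nuclei in the migration zone gave oligodendrocyte percentage relative to DMSO.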
# [11] = IUF_NPC2-5_cytotoxicity_72hr: Cytotoxicity Assessment at 72 hours in the Leibniz Research Institute for Environmental Medicine (IUF) Neural Progenitor Cell Migration and Differentiation Assay for Cytotoxicity (NPC2-5) (AID 2284306);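 further: LDH release into supernatant measured by resorufin fluorescence marking membrane damage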
# In short: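 Primary human neural progenitor spheres migrate and differentiate on laminin. Compound is present from the start of differentiation, with DMSO kept at or below 0.1%. At 72 h, supernatant LDH is quantified fluorometrically, with values fitted in the positive direction.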
# [12] = molecular target: Cellular tumor antigen p53 (Homo sapiens) (UniProt P04637); assay: TOX21_p53_BLA_p4_ratio: Tox21 HCT-116 p53 Agonism Beta-lactamase Assay, Ratio, Phase 4 (AID 2283601)
# In short: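 HCT116 cells carrying an inducible beta-lactamase reporter were plated at 4000 cells/well, rested 5 h, then exposed to compounds in DMSO (217-fold dilution) for 16 h at 37C. CCF4-AM substrate was loaded 2 h at room temperature; 460/530 nm emission ratio scored gain-of-signal versus DMSO.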
# [13] = molecular target: Ratio of Nucleoli Translocation and Cytoplasm, AR (gene 367) (UniProt P10275); assay: UPITT_HCI_U2OS_AR_TIF2_Nucleoli_Cytoplasm_Ratio_Antagonist: University of Pittsburgh U2OS Androgen Receptor-Transcriptional Intermediary Factor 2 (AR-TIF2) Antagonism High Content Imaging Assay for Ratio of Nucleoli Translocation and Cytoplasm (AID 2283999);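 further: antagonists lower the DHT-driven ratio of nucleolar to cytoplasmic red signal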
# In short: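 This antagonist-mode endpoint tracks AR-RFP localisation, the nucleolus-to-cytoplasm intensity ratio, in TIF2-GFP-coexpressing U2OS cells. DMSO stays at or below 0.5%; testing spans 20 uM single-dose and 0.195–50 uM series, with DHT setting the activity baseline.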
# [14] = CCTE_Harrill_HTTr_CellCount_MCF7: CCTE's Cell Proliferation Assessment for the High-Throughput Transcriptomics (HTTr) Platform, Harrill Lab (AID 2284012);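 further: count of Hoechst-stained nuclei per well by high-content imaging in MCF-7 cells; cells exposed to compound for six hours; intended direction is loss of nuclei count meaning fewer cells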
# In short: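 For this full-screen endpoint, MCF-7 cultures received eight compound dilutions for six hours. Well nuclei counts from Hoechst imaging were analyzed relative to DMSO.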
# [15] = CCTE_Shafer_MEA_dev_bursting_electrodes_number: CCTE's Neural Network Formation Assay for Number of Bursting Electrodes, Shafer Lab (AID 2284043)
# In short: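 Counted: electrodes with burst rate ≥1 per 2 min in each well. Cells: primary rat cortex, 1.5 x 10^5/well, on 16-electrode MEA wells. Exposure: DIV 0–12, compound renewed DIV 5 and 9. Recording days 5, 7, 9, 12; AUC vs DMSO baseline.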
# [16] = IUF_NPC4_neurite_area_120hr: Leibniz Research Institute for Environmental Medicine (IUF) 120-hour Neuronal Morphology Assay for Neurite Area (NPC4) (AID 2284305)
# In short: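 Endpoint at 120 h: automated imaging of TUBB3/Hoechst-stained differentiating human neural progenitor spheres, neurite area per neuron from skeletonization. DMSO solvent control, not above 0.1%, set the baseline; medium was half-replaced on day 3.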
# [17] = CCTE_Shafer_MEA_dev_LDH: CCTE's Lactate Dehydrogenase Assay for Cytotoxicity in the Neural Network Formation Assay, Shafer Lab (AID 2284068);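 further: exposure for twelve days from plating with re-dosing on DIV 5 and 9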
# In short: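 Primary rat cortical neurons were plated on PEI/laminin MEA plates and exposed from day 0 for twelve days, with compound renewed at DIV 5 and 9. Cytotoxicity was determined by spectrophotometric LDH assay relative to DMSO.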
# [18] = test system: SRY-box transcription factor 2 (SOX2) Protein Expression, Deisenroth Lab, SOX2 (gene 6657); assay: CCTE_Deisenroth_DEVTOX-GLR_Endo_SOX2: CCTE's DevTox GLR-Endo Assay Evaluation of SRY-box transcription factor 2 (SOX2) Protein Expression, Deisenroth Lab (AID 2284412)
# In short: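 Endpoint is percent SOX2-positive cells (SOX2+ count/total cells) minus 0.2% DMSO control, from high-content imaging of fixed, nuclear-stained RUES2-GLR cells. Dosing twice at 24 h intervals over 48 h differentiation, 1 nM–200 uM in 10 points.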
# [19] = test system: SRY-box transcription factor 17 (SOX17) Protein Expression, Deisenroth Lab, SOX17 (gene 64321); assay: CCTE_Deisenroth_DEVTOX-GLR_Pluri_SOX17: CCTE's DevTox GLR-Pluri Assay Evaluation of SRY-box transcription factor 17 (SOX17) Protein Expression, Deisenroth Lab (AID 2284427)
# In short: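 Using an inducible fluorescent SOX17 reporter in human pluripotent RUES2-GLR cells, compounds (1 nM - 200 uM) were given twice over 48 h differentiation. Percent SOX17+ cells minus DMSO control came from high-content image analysis.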
# THRA (gene 7067) = THRA (gene 7067) (UniProt P10827); assay: TOX21_TRA_COA_Antagonist_Followup_ratio: Tox21 Thyroid Hormone Receptor alpha Antagonism through Coactivator Recruitment Follow-Up Assay, Ratio (AID 2283953)
# In short: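 We measured antagonism of T3-type coactivator recruitment using a TR-FRET ratio (emission 520 and 495 nm) between a Tb-labelled anti-GST antibody on TRα LBD (2.5 nM) and SRC-2 peptide (200 nM). Activity was scaled between DMSO and T3 wells.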
# THRB (gene 7068) = THRB (gene 7068) (UniProt P10828); assay: TOX21_TRB_COA_Antagonist_Followup_ratio: Tox21 Thyroid Hormone Receptor beta Antagonism through Coactivator Recruitment Follow-Up Assay, Ratio (AID 2283967)
# In short: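 Coactivator (SRC-2) recruitment to purified GST-TRβ ligand-binding domain is monitored by terbium-to-fluorescein energy transfer, emission ratio 520:495 nm. DMSO wells define 0% and T3 wells 100% activity.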
# [20] = molecular target: Retinoic acid receptor RXR-alpha (Homo sapiens) (UniProt P19793); assay: TOX21_TR_RXR_BLA_Antagonist_Followup_ratio: Tox21 Thyroid Hormone Receptor beta Retinoid X Receptor alpha (RXRa) Antagonism Beta-lactamase (BLA) Follow-Up Assay, Ratio (AID 2283972)
# In short: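 Compounds were tested in triplicate at 11 concentrations on RXRa-bla HEK293T cells for 16 h. Substrate cleavage ratio, normalized to DMSO, gave the endpoint.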
smiles,measurement,setting,value
OC(c1ccccc1)c1ccccc1,AC50,[1],inconclusive: 53.6 µM
Clc1ccc2c(c1)Nc1ccccc1S2,AC50,PGR (gene 5241),active: 19.4 µM
same,AC50,[2],inconclusive: 23 µM
same,AC50,[3],inconclusive: 23 µM
O=[N+]([O-])c1ccc2[nH]c(=S)[nH]c2c1,AC50,[1],inconclusive: 53.6 µM
N[C@@H](CCC(=O)O)C(=O)O,outcome,[4],inactive
same,AC50,[5],inconclusive: 15 µM
same,AC50,[6],inconclusive: 15 µM
same,outcome,[7],inactive
same,AC50,[8],inconclusive: 0.00151 µM
same,outcome,[9],inactive
same,outcome,[10],inactive
same,AC50,[11],inconclusive: 2.5 µM
OC[C@H]1O[C@@H](O[C@H]2[C@H](O)[C@@H](O)C(O)O[C@@H]2CO)[C@H](O)[C@@H](O)[C@@H]1O (some centres not stated),AC50,[12],inconclusive: 23 µM
CCCCC(C)=O,AC50,[13],inconclusive: 50 µM
same,AC50,[14],inconclusive: 50 µM
C[C@@H]1CC[C@@H](C(C)(C)O)[C@H](O)C1,outcome,[15],inactive
same,AC50,[7],inconclusive: 2.85 µM
same,AC50,[9],inconclusive: 0.001 µM
same,AC50,[16],inconclusive: 0.161 µM
CCCCOCCOP(=O)(O)OCCOCCCC,AC50,[10],inconclusive: 0.0235 µM
CC(=O)N[C@@H](CC(=O)O)C(=O)O,AC50,[5],inconclusive: 0.129 µM
same,outcome,[15],inactive
same,AC50,[17],inconclusive: 0.206 µM
same,outcome,[7],inactive
Oc1cc(O)c2c(c1)O[C@H](c1ccc(O)c(O)c1)[C@@H](O)C2,outcome,[18],inactive
same,AC50,[19],inconclusive: 4.59 µM
O=c1[nH]c(=O)n([C@H]2C[C@H](O)[C@@H](CO)O2)cc1C(F)(F)F,AC50,THRA (gene 7067),inconclusive: 19.2 µM
same,AC50,THRB (gene 7068),inconclusive: 19.2 µM
same,AC50,[20],inconclusive: 19.2 µM
Clc1ccc(-c2nc3sccn3c2/C=N/OCc2ccc(Cl)c(Cl)c2)cc1,AC50,[14],inconclusive: 50 µM
OCCC1CCCCN1 (configuration not stated),AC50,[14],inconclusive: 50 µM
O=C1c2ccccc2-c2n[nH]c3cccc1c23,AC50,THRB (gene 7068),inconclusive: 3.8 µM
same,outcome,[20],inactive
CCOC(=O)C(C)CC (configuration not stated),AC50,[14],inconclusive: 50 µM
CC(CNC(=S)[S-])NC(=S)[S-].[Zn+2] (configuration not stated),AC50,[14],inconclusive: 50 µM
same,outcome,[10],inactive

# An excerpt of the results above:
smiles,measurement,setting,value
O=c1[nH]c(=O)n([C@H]2C[C@H](O)[C@@H](CO)O2)cc1C(F)(F)F,AC50,THRA (gene 7067),inconclusive: 19.2 µM
same,AC50,THRB (gene 7068),inconclusive: 19.2 µM
